Data as given in PubChem BioAssay AID1259424 (University of Nebraska Medical Center, 2018).
Assay: 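Rank knockdowns across the genome by resemblance to the KSR1 depletion profile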 (primary screen). System: human HCT116 colon cancer cells. Reagent: siRNA pool against human genes, 50 nM. Measurement: 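Log2 levels of six mRNAs (branched-DNA multiplex), adjusted by two reference genes and the non-targeting median, then scored against the average KSR1 knockdown pattern as Pearson r and euclidean distance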. Scale: mean correlation with KSR1 profile and KSR1 correlation: higher = expression change more like KSR1 knockdown; mean distance from KSR1 profile: higher = expression change less like KSR1 knockdown.
Here is a random part of about 14,000 reagents. 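Higher correlation or smaller distance means closer resemblance to KSR1 loss; control wells, including KSR1 knockdowns, recur on many plates.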 Not all columns of the deposit are shown. Not stated in the record: the time to read-out.

gene symbol	PubChem SID	mean correlation with KSR1 profile	mean distance from KSR1 profile	KSR1 correlation, replicate 1	KSR1 correlation, replicate 2
TMEM156 (transmembrane protein 156)	SID364003176	0.755	1.63	0.796	0.657
RPTOR (regulatory associated protein of MTOR complex 1)	SID364001811	-0.54	1.9	-0.539	-0.537
BDH2 (3-hydroxybutyrate dehydrogenase 2)	SID364001500	-0.798	3.59	-0.828	-0.665
RREB1 (ras responsive element binding protein 1)	SID363994106	0.0584	1.64	0.337	0.547
PDIA3 (protein disulfide isomerase family A member 3)	SID363996229	-0.48	1.95	-0.307	-0.64
ADGRF5 (adhesion G protein-coupled receptor F5)	SID363999372	0.565	1.54	0.46	0.735
KRTAP1-1 (keratin associated protein 1-1)	SID364003534	0.484	2.28	0.314	0.466
TPR (translocated promoter region, nuclear basket protein)	SID363994411	-0.679	2.09	-0.634	-0.528
MRGPRX2 (MAS related GPR family member X2)	SID364004449	0.415	1.8	0.43	0.543
ZNRD2 (zinc ribbon domain containing 2)	SID363997207	-0.376	2.04	-0.528	-0.438
SLIT1 (slit guidance ligand 1)	SID363994209	-0.461	2.39	-0.634	-0.306
SHMT2 (serine hydroxymethyltransferase 2)	SID363996318	0.106	2.22	0.159	-0.000849
SMG9 (SMG9 nonsense mediated mRNA decay factor)	SID364001408	-0.113	2.81	0.0213	-0.287
RAD50 (RAD50 double strand break repair protein)	SID363996617	0.0557	1.83	-0.146	0.341
SPPL2B (signal peptide peptidase like 2B)	SID364001528	-0.218	2.36	-0.111	-0.165
MSRB1 (methionine sulfoxide reductase B1)	SID364000039	-0.232	3.54	-0.0243	-0.144
FAM156A (family with sequence similarity 156 member A)	SID363998603	-0.147	1.85	-0.389	-0.444
TMC5 (transmembrane channel like 5)	SID364003051	0.285	1.66	0.342	0.36
PCNA (proliferating cell nuclear antigen)	SID363993761	0.902	2.62	0.92	0.777
PTP4A2 (protein tyrosine phosphatase 4A2)	SID363994578	0.372	1.29	0.272	0.0909
PLA1A (phospholipase A1 member A)	SID363999704	0.133	1.86	-0.0268	0.446
RASSF9 (Ras association domain family member 9)	SID363996353	0.199	1.83	0.166	0.257
PRSS27 (serine protease 27)	SID364003718	0.893	0.885	0.32	0.815
MOCS2 (molybdenum cofactor synthesis 2)	SID363995505	0.0999	2.22	0.0183	0.163
FLNA (filamin A)	SID363992718	0.591	3.08	0.6	0.534
DUS3L (dihydrouridine synthase 3 like)	SID364001529	-0.529	8.6	-0.414	-0.452
KIAA0825	SID364005467	-0.797	1.24	-0.693	-0.901
COX16 (cytochrome c oxidase assembly factor COX16)	SID364000126	-0.548	1.71	-0.328	-0.566
GAB3 (GRB2 associated binding protein 3)	SID364004488	0.171	1.7	-0.0597	0.148
SNX1 (sorting nexin 1)	SID363994241	0.416	1.26	0.576	0.261
MRPL33 (mitochondrial ribosomal protein L33)	SID364004663	-0.641	1.45	-0.847	-0.56
HAVCR2 (hepatitis A virus cellular receptor 2)	SID364004167	-0.143	3.3	-0.136	-0.12
EPHX3 (epoxide hydrolase 3)	SID364003065	-0.0135	3.1	0.154	0.0529
GYPA (glycophorin A (MNS blood group))	SID363993306	-0.124	1.66	-0.208	-0.283
